Test results from paper PMC12080252, “Daphnia magna as an Alternative Model for (Simultaneous) Bioaccumulation and Chronic Toxicity Assessment—Controlled Exposure Study Indicates High Hazard of Heterocyclic PAHs” (Environmental Science & Technology, 2025).

How the values were obtained:
Daphnia magna [1] = experiment: Chronic reproduction toxicity test (OECD 211) with passive dosing; assay type: in vivo; conditions: from EA50 and CTLBB
Method: Chronic toxicity tests with D. magna were performed according to the OECD guideline 211^2 using the passive dosing method. Two days before the tests, the exposure solution was predosed by shaking 10 PDMS disks loaded with the test substance in 1 L of medium for 48 h. Each test vessel (250 mL) was first flushed with the dosed solution to equilibrate the vessel walls, then filled with 100 mL of test solution, one PDMS disk, and one juvenile D. magna (<24 h old). The tests were conducted in loosely closed bottles to allow for adequate gas exchange and limit evaporation. The exposure medium was changed three times per week, and the animals were fed D. subspicatus daily (0.2 mg C/Daphnia/day). The number of offspring per adult and behavioral or physiological effects (e.g., size, movement, unhatched eggs) were recorded daily (except weekends). Dissolved oxygen, pH and temperature were also measured each week.
Tests were performed under static conditions (20 °C, 16:8 h light/dark cycle, 1 klux). Each compound was tested in 10 replicates for controls and limit tests (a single high concentration exposure to screen for significant toxic effects) and with 6 or 10 replicates for concentration–response tests. Reuse of silicone disks was included in some experiments (Table S3). Reproductive inhibition was assessed by counting offspring over 21 days. The number of offspring per mother in treatment groups was compared to controls, and the percent inhibition per replicate was used to generate concentration–response curves. A minimum of five concentrations per compound were tested to determine EC10, EC20, and EC50 values. For each test, three sets of polymers were rotated between loading, dosing, and exposure stages (Figure S2). Initial (before animal and food addition) and final (after 2–3 days of exposure, just before the medium change) water concentrations (CW) were monitored, with the latter collected after centrifugation to remove biomass (e.g., algae, carapaces, or feces).
All data are presented as average ± standard deviation. Student’s t test was used to analyze significance (p-value >0.05 considered insignificant). Concentration–response curve parameters (effective concentrations and confidence limits) and plots were generated using GraphPad Prism software (V6.01, GraphPad Software, La Jolla, CA, USA). The exposure concentrations were log10 transformed before fitting. Then a four parameters logistic model with variable slope was used to obtain EC10, EC20 and EC50 (see section S5 in SI file for details). Effective chemical activities (EA50) for chronic toxicity were calculated as follows: [drawing 1] 1 […]
S5. Concentration-response curve (CRC) fitting procedure
GraphPad Prism version 9.5.1 was used to fit CRC and obtain EC10, EC20, EC50 values and their confidence intervals. […]

Daphnia magna [2] = experiment: Bioaccumulation test (growth, uptake, depuration; adapted from OECD 305) with passive dosing; assay type: in vivo; conditions: slope of ln wet weight vs time
Method: Bioaccumulation tests with D. magna were adapted from OECD guideline 305 (for fish).[27] Each compound was tested using 110 animals: 10 for controls and 100 for chemical exposure. The animals, aged 10 days to limit growth dilution and provide sufficient tissue for analysis, were exposed to a single subtoxic concentration of each chemical. The test included three phases: (i) growth, (ii) uptake, and (iii) depuration. A combined chronic toxicity and bioaccumulation test was also conducted in a minimized version (section 2.6).
Ten days before exposure, 110 juvenile daphnids (<24 h old) were collected from the stock culture and grown in M4 medium. Due to the large number of animals required for this test, the volume of media and amount of food provided to the Daphnia were reduced for experimental feasibility. This was achieved by maintaining a denser population (20 mL medium/daphnid), as well as less food (D. subspicatus equivalent to 0.1 mg C/daphnid/day) compared to the stock culture yet still within the limits allowed by OECD 211. Other dietary supplements (fish food and spirulina) and physical conditions (temperature, light/dark cycle) were the same as the stock culture.
Before exposure started, 2 L of M4 medium containing D. subspicatus at a density sufficient for 100 daphnids for 5 days (25 mg C L^–1) was dosed with the test substance by shaking with 24 PDMS disks for 72 h. For controls (10 animals), 200 mL of M4 medium containing D. subspicatus ([…]) was equilibrated with 2 disks loaded with pure methanol. Immediately before the start of exposure phase, 10-day old daphnids were transferred to fresh medium for 1 h to clean their guts. […]
50 animals were first transferred to fresh medium for 15 min to remove exposure solution from their surface, and then placed in a new clean medium for the depuration phase. […] Control animals and their medium were analyzed at the end of both the uptake and depuration phases (5 animals each).
For quantification of body burdens, 5 daphnids were thawed, homogenized in 5 mL Milli-Q water (IKA T-25 digital Ultra-TURRAX) and extracted twice with 2 mL of hexane. […]
The depuration rate constant (k2) was derived by plotting the natural logarithm of CD against time ([h]), with the slope giving k2 (Figure S3).[27] The growth rate constant (kg) was determined from the slope of the regression line in the plot of ln (D. magna wet weight) versus time, and the growth-corrected depuration rate constant (k2g) was calculated using eq 4. […]
The bioaccumulation factor (BAF*) was calculated, even though steady-state was not reached. […]

c1ccc2c(c1)ccc1[nH]c3ccccc3c12 [BCRB, 7H-benzo[c]carbazole]
Mode of action (Daphnia magna [1]): baseline toxicity | kg (growth rate constant) (Daphnia magna [2]): 0.0019 h⁻¹

c1ccc2c(c1)ccc1oc3ccc4ccccc4c3c12 [DNF, dinaphtho[2,1-b:1′,2′-d]furan]
Mode of action (Daphnia magna [1]): baseline toxicity | kg (growth rate constant) (Daphnia magna [2]): 0.0024 h⁻¹

c1ccc2c(c1)ccc1oc3ccccc3c12 [BNF, benzo[b]naphtho[1,2-d]furan]
Mode of action (Daphnia magna [1]): baseline toxicity | kg (growth rate constant) (Daphnia magna [2]): 0.0032 h⁻¹

c1ccc2c(c1)ccc1sc3ccccc3c12 [BNT, benzo[b]naphtho[1,2-d]thiophene]
Mode of action (Daphnia magna [1]): baseline toxicity | kg (growth rate constant) (Daphnia magna [2]): 0.0017 h⁻¹
